Assay results as given in US20240391800A1, “HYPERSALINE DESALINATION USING IONIC LIQUIDS AND LOW-TEMPERATURE HEAT” (UNIVERSITY OF NOTRE DAME DU LAC, priority 2021, published 2024).
Several values for one entry are separate records, joined by “and”; a condition that tells them apart may be missing. Equal values may be shown once.

Assay: Directional solvent extraction (DSE) desalination cycle, moderate / seawater-salinity NaCl feed
Details: for water yield: Table 2, DSE screening of less compatible ILs; for Na+ residual in IL: ion residue in IL after DSE, measured by Na+ concentration; for H2O yield (%/° C.): seawater salinity feedwater

Compound | water yield | Na+ residual in IL | H2O yield (%/° C.) | recovered Na+ concentration in product water (feeding saline with Na+ concentration 13700 ppm)
CCCCCCCCCCCCCC[P+](CCCCCC)(CCCCCC)CCCCCC [[P66614][Tf2N], Trihexyltetradecylphosphonium bis(trifluoromethanesulfonyl)imide] | water yield (<0.012%/° C.) | – | – | –
CC[n+]1ccn(C)n1 [[1,2,3-emtriz][Tf2N], 1-ethyl-3-methyl-1,2,3-triazolium bistriflimide] | – | ~330 ppm | 0.19 %/° C. | –
CCCCCCCC[P+](CCCC)(CCCC)CCCC [[P4448][Tf2N]] [Tributyloctylphosphonium bis(trifluoromethanesulfonyl)imide] | water yield (<0.005%/° C.) | – | – | –
COC[n+]1ccn(C)c1 [[mommim][Tf2N], 1-(methoxymethyl)-3-methyl-1H-imidazol-3-ium bis(trifluoromethylsulfonyl)imide] | – | ~520 ppm | 0.24 %/° C. and 0.24%x %/° C. | 926 ppm
